According to patent publication US20020187124A1:
Results are given in words; binding and its absence hold for the method and conditions named. Some entries that bind do so weakly or less than the wild type.

Amino acid sequences for entries named in this document (tags omitted). A change or cut given only in a name is not applied to a line headed by its entry.
UniProt P02763: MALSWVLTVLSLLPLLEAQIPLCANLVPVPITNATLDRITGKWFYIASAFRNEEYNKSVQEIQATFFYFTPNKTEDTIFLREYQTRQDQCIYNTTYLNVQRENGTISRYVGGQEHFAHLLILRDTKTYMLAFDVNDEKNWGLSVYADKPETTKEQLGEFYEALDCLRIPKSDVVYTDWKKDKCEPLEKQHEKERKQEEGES

Biological target: T1, asialoglycoprotein receptor on Hep G2 human hepatoma cells (human) (UniProt P07306+P07307)
T1 sequence (looked up) 1: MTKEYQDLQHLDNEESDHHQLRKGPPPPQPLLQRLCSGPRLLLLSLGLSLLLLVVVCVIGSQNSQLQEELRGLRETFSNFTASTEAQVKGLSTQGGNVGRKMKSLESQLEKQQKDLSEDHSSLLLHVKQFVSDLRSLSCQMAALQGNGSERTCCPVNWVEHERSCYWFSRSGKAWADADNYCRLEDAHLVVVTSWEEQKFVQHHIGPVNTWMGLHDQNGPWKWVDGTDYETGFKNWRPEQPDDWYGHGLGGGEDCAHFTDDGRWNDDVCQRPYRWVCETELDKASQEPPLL
T1 sequence (looked up) 2: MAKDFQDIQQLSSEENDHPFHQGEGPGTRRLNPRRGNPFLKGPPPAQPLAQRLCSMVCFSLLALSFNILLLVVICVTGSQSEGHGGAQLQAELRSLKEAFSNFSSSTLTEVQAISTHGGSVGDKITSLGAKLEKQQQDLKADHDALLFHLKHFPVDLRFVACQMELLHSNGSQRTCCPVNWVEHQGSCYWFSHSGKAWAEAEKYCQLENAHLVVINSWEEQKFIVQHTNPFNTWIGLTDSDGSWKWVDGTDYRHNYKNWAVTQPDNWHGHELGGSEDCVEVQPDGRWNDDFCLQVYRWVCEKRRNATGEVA
Test: radiolabelled ligand on hepatoma cell lines; Hep G2 chosen as a receptor-expressing line

binding: binds
Substance: labeled asialo-orsomucoid (from UniProt P02763 19-201) (ligand)
